According to PubChem BioAssay AID504467 (National Center for Advancing Translational Sciences (NCATS), 2011):
The campaign covered roughly 330,000 compounds. About 7,700 (2.3%) were called active. Inconclusive means that the source gave no clear call. Such entries were picked first, then a sample of the others. Calls follow the shape of the dose curve; as a rule, active = well fitted inhibition curve with a large enough effect; inconclusive = small, poorly fitted or top-dose-only effect, or effect the other way; inactive = flat fitted curve, though single readings scatter. Potencies of inconclusive entries are doubtful fits and often do not repeat.

Test: qHTS screen for small molecules that inhibit ELG1-dependent DNA repair in human embryonic kidney (HEK293T) cells expressing luciferase-tagged ELG1; also: nearly all actives have a fitted effect of over 55% in size
Conditions: HEK293T ELG1-luciferase reporter, luminescence, 16 h, DNA damage induced by 5-fluorouridine; activity change, negative = inhibition: at 46.1 µM (top of the series)
Outline: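 Reporter activity after DNA damage by 5-fluorouridine is monitored. Compound-treated cells incubate 16 hr at 37 °C, then ONE-Glo is added for 30 min before luminescence reading.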
% is scaled to controls: 0 for no effect and ±100 for the full control effect; potency is read from the fitted curve at half-maximal effect.

Which Potency does the source give for `c1ccc(-c2nc3ccccc3o2)nc1` here?
Its Potency is inconclusive: 13 µM [activator, partial curve].

With `Cc1cc(OCC(=O)Nc2cccc(S(=O)(=O)N3CCCCC3)c2)ccc1Cl` as the compound, how does the “activity change, negative = inhibition” value read?
Its value is inactive: -13.1%.

Which “activity change, negative = inhibition” value does the source give for `Cc1ccc(OC(=O)CN2C(=O)c3ccccc3C2=O)cc1C` here?
Its value is inactive: -8.24%.

For `CCCc1cc(C(=O)N2CCN(c3ccc(C(F)(F)F)cn3)CC2)sc1C`, which Potency is on record?
Its Potency is inconclusive: 20.6 µM [inhibitor, single point].

Which “activity change, negative = inhibition” value does the source give for `CC(C)(C)c1ccc(C(=O)C2CCCN(C(=O)C3CCOCC3)C2)cc1` (configuration not stated) here?
The value was inactive: -1.38%.

Which Potency does the source give for `CC1(C)CC(=O)C(N=Nc2c(F)cccc2F)=C(O)C1` here?
The Potency was inconclusive: 1.46 µM [inhibitor, partial curve, poor fit].

With `Cc1nc2cc(NC(=O)NCCCO)ccc2o1` as the compound, how does the “activity change, negative = inhibition” value read?
The value was inactive: -12.7%.

With `O=C(Nc1ccccc1F)C1CCCN(S(=O)(=O)c2cccc3cccnc23)C1` (configuration not stated) as the compound, how does the Potency read?
Its Potency is inconclusive: 25.9 µM [inhibitor, single point].

Which Potency does the source give for `c1ccc(-c2csc(NNC3=NCCCCC3)n2)cc1` here?
Its Potency is inconclusive: 23.1 µM [activator, single point].

With `CC(Sc1nnnn1C)C(=O)NC1CCCC1` (configuration not stated) as the compound, how does the “activity change, negative = inhibition” value read?
Its value is inactive: 12%.

With `COc1cc(-c2cc(C(=O)N(C)Cc3ccccc3)c3ccccc3n2)cc(OC)c1OC` as the compound, how does the Potency read?
The Potency was inconclusive: 25.9 µM [inhibitor, single point].

With `CS(=O)(=O)c1ccc(Cl)c(NC(=O)CSc2nc3ccccc3c(=O)n2CCCN2CCOCC2)c1` as the compound, how does the Potency read?
Its Potency is inconclusive: 16.4 µM [inhibitor, partial curve].

For `O=C(NC(=O)c1ccccc1)Nc1ccccc1O`, which Potency is on record?
The Potency was inconclusive: 3.26 µM [activator, full curve].

With `NS(=O)(=O)c1cccc(NC(=O)CSc2ccccn2)c1` as the compound, how does the Potency read?
The Potency was inconclusive: 20.6 µM [activator, partial curve].

Which “activity change, negative = inhibition” value does the source give for `CN(C)c1ccc(N2C(=NC(=O)CC3CCCCC3)SC3CS(=O)(=O)CC32)cc1` (configuration not stated) here?
Its value is inactive: 4.77%.

For `O=C(C1=C[C@H](c2ccc(Br)cc2)C[C@H](OCCCCO)O1)N1CCN(Cc2ccc3c(c2)OCO3)CC1`, which Potency is on record?
Its Potency is inconclusive: 29.1 µM [inhibitor, single point].

For `CC(Sc1nnc(Nc2ccccc2F)s1)C(=O)NC1CC1` (configuration not stated), which Potency is on record?
Its Potency is inconclusive: 18.3 µM [activator, partial curve, poor fit].

For `CCOC(=O)N1CCC(NC(=O)c2cc3cc4cc(OC)ccc4nc3o2)CC1`, which Potency is on record?
The Potency was active: 23.1 µM.

For `O=C(COC(=O)/C=C/c1ccccc1)Nc1nnc(-c2ccccc2)o1`, which “activity change, negative = inhibition” value is on record?
Its value is inactive: -0.621%.

Which “activity change, negative = inhibition” value does the source give for `Cc1cc(NC(=O)CSc2nc3c(C)ccc(C)c3cc2C#N)no1` here?
The value was inactive: -0.122%.

With `COc1cc(Br)c(Br)cc1N` as the compound, how does the “activity change, negative = inhibition” value read?
The value was inactive: 2.43%.

For `Cc1cccc2c(C(=O)N3CCN(C(=O)c4ccco4)CC3)cc(-c3cccc(Br)c3)nc12`, which Potency is on record?
Its Potency is inconclusive: 18.3 µM [inhibitor, single point].
